Data as given in PubChem BioAssay AID1259254 (NCATS, 2017).
Test: 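Finding genes that stop cells copying their DNA twice in one cycle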 (primary screen). Cell system: human HCT116 colorectal cancer cells. Reagent: single siRNA against human genes. Duration: 3 days. Measured: 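Imaged Hoechst DNA stain sorts each cell into a cycle phase by DNA amount; per plate, G2 fraction set to 0% for non-targeting and 100% for GMNN siRNA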. Scale: G2 robust z-score: higher = more G2 cells, more excess DNA replication. Hit rule: 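An siRNA counts as active if its G2 robust z-score lies at least 5 MADs above the screen median; here such calls match roughly 38% of GMNN control or more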.
The whole screen tested about 59,000 reagents; shown is an unselected part. About 1,550 of all reagents (2.6%) were called active. 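G2 share is only a proxy for re-replication; each gene was hit by three separate siRNAs, and active genes were retested.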 The numbers tell different reagents against one gene apart. Further read-outs or replicates are left out here. Not stated in the record: the amount of reagent.

gene knocked down,reagent no.,G2 robust z-score,Call
FAAP100,1,-0.498,inactive
FAAP100,2,1.53,inactive
FAAP100,3,-0.0711,inactive
SLC35E3,1,-0.637,inactive
SLC35E3,2,-0.932,inactive
SLC35E3,3,0.409,inactive
SLC29A1,1,0.641,inactive
SLC29A1,2,1.47,inactive
SLC29A1,3,-0.441,inactive
SLC36A2,1,-0.223,inactive
SLC36A2,2,-0.626,inactive
SLC36A2,3,2.91,inactive
HIF1A,1,-0.0216,inactive
HIF1A,2,1.27,inactive
HIF1A,3,0.475,inactive
BCAN,1,-0.332,inactive
BCAN,2,0.259,inactive
BCAN,3,0.436,inactive
ZNF830,1,-0.747,inactive
ZNF830,2,0.68,inactive
ZNF830,3,0.899,inactive
SYBU,1,4.75,inactive
SYBU,2,-0.394,inactive
SYBU,3,-0.504,inactive
TMEM219,1,-0.999,inactive
TMEM219,2,-0.32,inactive
TMEM219,3,0.454,inactive
DIRAS2,1,1.82,inactive
DIRAS2,2,-1.16,inactive
DIRAS2,3,-1.02,inactive
SLTM,1,-0.566,inactive
SLTM,2,1.6,inactive
SLTM,3,-0.0369,inactive
R3HDML,1,-0.33,inactive
R3HDML,2,-0.427,inactive
R3HDML,3,0.637,inactive
TCEAL3,1,0.146,inactive
TCEAL3,2,-0.249,inactive
TCEAL3,3,-0.0545,inactive
PRKACB,1,-0.98,inactive
PRKACB,2,-1,inactive
PRKACB,3,1.91,inactive
POLR2I,1,2.55,inactive
POLR2I,2,3.24,inactive
POLR2I,3,1,inactive
TSPYL1,1,1.7,inactive
TSPYL1,2,-1.13,inactive
TSPYL1,3,-0.223,inactive
CETN1,1,-0.704,inactive
CETN1,2,-0.385,inactive
CETN1,3,-0.415,inactive
DRC8,1,0.436,inactive
DRC8,2,0.0742,inactive
DRC8,3,-0.56,inactive
WFDC2,1,-0.0615,inactive
WFDC2,2,-0.283,inactive
WFDC2,3,-1.41,inactive
LANCL3,1,-1.36,inactive
LANCL3,2,-0.181,inactive
LANCL3,3,-0.786,inactive
SERPINA3,1,-0.48,inactive
SERPINA3,2,3.15,inactive
SERPINA3,3,0.457,inactive
FAM47B,1,3.67,inactive
FAM47B,2,0.285,inactive
FAM47B,3,-0.881,inactive
GGT7,1,-0.427,inactive
GGT7,2,-0.949,inactive
GGT7,3,-0.172,inactive

No new results follow: an excerpt of the list.
gene knocked down,reagent no.,G2 robust z-score,Call
SLC35E3,1,-0.637,inactive
SLC35E3,2,-0.932,inactive
SLC35E3,3,0.409,inactive
SLC29A1,1,0.641,inactive
SLC29A1,2,1.47,inactive
SLC29A1,3,-0.441,inactive
SLC36A2,1,-0.223,inactive
SLC36A2,2,-0.626,inactive
SLC36A2,3,2.91,inactive
